# Measured values as given in the supplement of paper PMC8728848.
# Some of the results follow.
# B1: Clec12b (Mus musculus), Q149M0 (protein)
# chain: MSDEVTYATLMLQDSARVRGNQDGNNLRKEGHPAQSSLWRGAALSLMTLCLVLVTGLVTLATMFLQVSNDINSDSEKLSQLQKSIHPQQDNLSESLNSSRKSLTEESLQSQISALLERQEQMATKLCKEFLIHASDHKCNPCPKTWQWYGNSCYYFSINEEKSWSDSRKDCIDKNATLVKIDSTEERDLLQSQLSLTFSFFWLGLSWNSSGRNWLWEDGSFPPPTLFSDKELASFNGSRDCAYFERGNIYASRCSAEIPWICEKTASLVKTEDLD
# Legend:
# Assay in all cases: glycan array binding signal (z-score within array); higher = stronger binding
# Conditions in all cases: glycan notation: IUPAC condensed, linker removed
# [1] = biological target: Gal(b1-3)GlcNAc(b1-3)Gal(b1-4)GlcNAc(b1-2)Man(a1-3)[Gal(b1-3)GlcNAc(b1-3)Gal(b1-4)GlcNAc(b1-2)Man(a1-6)]Man(b1-4)GlcNAc(b1-4)GlcNAc
# Summary of the method: (§1)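 Negative Z-scores can be read as non-binding. The Z-score is calculated within each array and then averaged across arrays of one protein sequence at different concentrations or buffers and across linkers. Arrays, 3228 in all, were curated from the Consortium for Functional Glycomics database and kept only where the protein sequence was available.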
# [2] = biological target: Gal(b1-3)GlcNAc(b1-3)Gal(b1-4)GlcNAc(b1-2)[Gal(b1-3)GlcNAc(b1-3)Gal(b1-4)GlcNAc(b1-6)]Man(a1-6)[Gal(b1-3)GlcNAc(b1-3)Gal(b1-4)GlcNAc(b1-2)Man(a1-3)]Man(b1-4)GlcNAc(b1-4)[Fuc(a1-6)]GlcNAc
# Summary of the method: as §1
# [3] = biological target: Gal(b1-3)GlcNAc(b1-3)Gal(b1-4)GlcNAc(b1-3)Gal(b1-4)GlcNAc(b1-2)[Gal(b1-3)GlcNAc(b1-3)Gal(b1-4)GlcNAc(b1-3)Gal(b1-4)GlcNAc(b1-6)]Man(a1-6)[Gal(b1-3)GlcNAc(b1-3)Gal(b1-4)GlcNAc(b1-3)Gal(b1-4)GlcNAc(b1-2)Man(a1-3)]Man(b1-4)GlcNAc(b1-4)[Fuc(a1-6)]GlcNAc
# Summary of the method: as §1
# [4] = biological target: Gal(b1-3)GlcNAc(b1-3)Gal(b1-4)GlcNAc(b1-6)[Gal(b1-3)GlcNAc(b1-3)]Gal(b1-4)Glc
# Summary of the method: as §1
# [5] = biological target: Gal(b1-3)GlcNAc(b1-3)Gal(b1-4)[Fuc(a1-3)]GlcNAc
# Summary of the method: as §1
# [6] = biological target: Gal(b1-3)GlcNAc(b1-3)Gal(b1-4)[Fuc(a1-3)]GlcNAc(b1-6)[Gal(b1-3)GlcNAc(b1-3)]Gal(b1-4)Glc
# Summary of the method: as §1
# [7] = biological target: Gal(b1-3)GlcNAc(b1-3)GalNAc
# Summary of the method: as §1
# [8] = biological target: Gal(b1-3)GlcNAc(b1-6)Gal(b1-4)GlcNAc
# Summary of the method: as §1
# [9] = biological target: Gal(b1-3)GlcNAc(b1-6)GalNAc
# Summary of the method: as §1
# [10] = biological target: Gal(b1-3)GlcNAc(b1-6)[Gal(b1-3)]GalNAc
# Summary of the method: as §1
# [11] = biological target: Gal(b1-3)GlcNAc6S
# Summary of the method: as §1
# [12] = biological target: Gal(b1-3)[Fuc(a1-4)]GlcNAc
# Summary of the method: as §1
# [13] = biological target: Gal(b1-3)[Fuc(a1-4)]GlcNAc(b1-2)Man
# Summary of the method: as §1
# [14] = biological target: Gal(b1-3)[Fuc(a1-4)]GlcNAc(b1-2)Man(a1-3)[Gal(b1-3)[Fuc(a1-4)]GlcNAc(b1-2)Man(a1-6)]Man(b1-4)GlcNAc(b1-4)[Fuc(a1-6)]GlcNAc
# Summary of the method: as §1
# [15] = biological target: Gal(b1-3)[Fuc(a1-4)]GlcNAc(b1-3)Gal(b1-3)[Fuc(a1-4)]GlcNAc
# Summary of the method: as §1
# [16] = biological target: Gal(b1-3)[Fuc(a1-4)]GlcNAc(b1-3)Gal(b1-4)[Fuc(a1-3)]GlcNAc
# Summary of the method: as §1
# [17] = biological target: Gal(b1-3)[Fuc(a1-4)]GlcNAc(b1-6)GalNAc
# Summary of the method: as §1
# [18] = biological target: Gal(b1-3)[GlcNAc(b1-6)]GalNAc
# Summary of the method: as §1
# [19] = biological target: Gal(b1-3)[Neu5Ac(a2-6)]GalNAc
# Summary of the method: as §1
# [20] = biological target: Gal(b1-3)[Neu5Ac(a2-6)]GlcNAc(b1-4)Gal(b1-4)Glc
# Summary of the method: as §1
# [21] = biological target: Gal(b1-3)[Neu5Ac(b2-6)]GalNAc
# Summary of the method: as §1
# [22] = biological target: Gal(b1-4)Gal
# Summary of the method: as §1
# [23] = biological target: Gal(b1-4)GalNAc(a1-3)[Fuc(a1-2)]Gal(b1-4)GlcNAc
# Summary of the method: as §1
# [24] = biological target: Gal(b1-4)GalNAc(b1-3)[Fuc(a1-2)]Gal(b1-4)GlcNAc
# Summary of the method: as §1
# [25] = biological target: Gal(b1-4)Glc
# Summary of the method: as §1
# [26] = biological target: Gal(b1-4)Glc6S
# Summary of the method: as §1
# [27] = biological target: Gal(b1-4)GlcNAc
# Summary of the method: as §1
# [28] = biological target: Gal(b1-4)GlcNAc(a1-6)Gal(b1-4)GlcNAc
# Summary of the method: as §1
# [29] = biological target: Gal(b1-4)GlcNAc(b1-2)Man
# Summary of the method: as §1
# [30] = biological target: Gal(b1-4)GlcNAc(b1-2)Man(a1-3)Man(b1-4)GlcNAc(b1-4)GlcNAc
# Summary of the method: as §1
# [31] = biological target: Gal(b1-4)GlcNAc(b1-2)Man(a1-3)[Gal(b1-4)GlcNAc(b1-2)Man(a1-6)]Man(b1-4)GlcNAc(b1-4)GlcNAc
# Summary of the method: as §1
# [32] = biological target: Gal(b1-4)GlcNAc(b1-2)Man(a1-3)[Gal(b1-4)GlcNAc(b1-2)Man(a1-6)]Man(b1-4)GlcNAc(b1-4)[Fuc(a1-6)]GlcNAc
# Summary of the method: as §1
# [33] = biological target: Gal(b1-4)GlcNAc(b1-2)Man(a1-3)[Gal(b1-4)GlcNAc(b1-2)Man(a1-6)][Gal(b1-4)GlcNAc(b1-4)]Man(b1-4)GlcNAc(b1-4)[Fuc(a1-6)]GlcNAc
# Summary of the method: as §1
# [34] = biological target: Gal(b1-4)GlcNAc(b1-2)Man(a1-3)[Gal(b1-4)GlcNAc(b1-2)Man(a1-6)][GlcNAc(b1-4)]Man(b1-4)GlcNAc(b1-4)[Fuc(a1-6)]GlcNAc
# Summary of the method: as §1
# [35] = biological target: Gal(b1-4)GlcNAc(b1-2)Man(a1-3)[GlcNAc(b1-2)Man(a1-6)]Man(b1-4)GlcNAc(b1-4)GlcNAc
# Summary of the method: as §1
# [36] = biological target: Gal(b1-4)GlcNAc(b1-2)Man(a1-3)[GlcNAc(b1-4)][Gal(b1-4)GlcNAc(b1-2)Man(a1-6)]Man(b1-4)GlcNAc(b1-4)GlcNAc
# Summary of the method: as §1
# [37] = biological target: Gal(b1-4)GlcNAc(b1-2)Man(a1-3)[Man(a1-6)]Man(b1-4)GlcNAc(b1-4)GlcNAc
# Summary of the method: as §1
# [38] = biological target: Gal(b1-4)GlcNAc(b1-2)Man(a1-6)Man(b1-4)GlcNAc(b1-4)GlcNAc
# Summary of the method: as §1
binder,measurement,setting,value
B1,glycan array binding signal (z-score),[1],0.818
same,glycan array binding signal (z-score),[2],-0.055
same,glycan array binding signal (z-score),[3],-0.153
same,glycan array binding signal (z-score),[4],-0.533
same,glycan array binding signal (z-score),[5],-0.727
same,glycan array binding signal (z-score),[6],-0.636
same,glycan array binding signal (z-score),[7],-0.326
same,glycan array binding signal (z-score),[8],-0.521
same,glycan array binding signal (z-score),[9],-0.588
same,glycan array binding signal (z-score),[10],-0.057
same,glycan array binding signal (z-score),[11],0.486
same,glycan array binding signal (z-score),[12],-0.091
same,glycan array binding signal (z-score),[13],0.927
same,glycan array binding signal (z-score),[14],3.71
same,glycan array binding signal (z-score),[15],-0.681
same,glycan array binding signal (z-score),[16],-0.729
same,glycan array binding signal (z-score),[17],-0.018
same,glycan array binding signal (z-score),[18],-0.137
same,glycan array binding signal (z-score),[19],0.27
same,glycan array binding signal (z-score),[20],1.27
same,glycan array binding signal (z-score),[21],-0.423
same,glycan array binding signal (z-score),[22],-0.359
same,glycan array binding signal (z-score),[23],0.605
same,glycan array binding signal (z-score),[24],-0.389
same,glycan array binding signal (z-score),[25],-0.157
same,glycan array binding signal (z-score),[26],-0.015
same,glycan array binding signal (z-score),[27],0.054
same,glycan array binding signal (z-score),[28],-0.562
same,glycan array binding signal (z-score),[29],0.16
same,glycan array binding signal (z-score),[30],-0.6
same,glycan array binding signal (z-score),[31],0.242
same,glycan array binding signal (z-score),[32],-0.387
same,glycan array binding signal (z-score),[33],-0.592
same,glycan array binding signal (z-score),[34],1.72
same,glycan array binding signal (z-score),[35],-0.528
same,glycan array binding signal (z-score),[36],-0.391
same,glycan array binding signal (z-score),[37],0.251
same,glycan array binding signal (z-score),[38],0.112

# Part of the list above, reformatted.
binder	measurement	setting	value
B1	glycan array binding signal (z-score)	[36]	-0.391
same	glycan array binding signal (z-score)	[37]	0.251
